Experimental data taken from the supplement of paper PMC12067093, “Discovery and optimisation of a covalent ligand for TRIM25 and its application to targeted protein ubiquitination” (Chemical Science, 2025).
Some of the results follow.

Amino acid sequences for entries named in this document (tags omitted). A change or cut given only in a name is not applied to a line headed by its entry.
UniProt Q92610: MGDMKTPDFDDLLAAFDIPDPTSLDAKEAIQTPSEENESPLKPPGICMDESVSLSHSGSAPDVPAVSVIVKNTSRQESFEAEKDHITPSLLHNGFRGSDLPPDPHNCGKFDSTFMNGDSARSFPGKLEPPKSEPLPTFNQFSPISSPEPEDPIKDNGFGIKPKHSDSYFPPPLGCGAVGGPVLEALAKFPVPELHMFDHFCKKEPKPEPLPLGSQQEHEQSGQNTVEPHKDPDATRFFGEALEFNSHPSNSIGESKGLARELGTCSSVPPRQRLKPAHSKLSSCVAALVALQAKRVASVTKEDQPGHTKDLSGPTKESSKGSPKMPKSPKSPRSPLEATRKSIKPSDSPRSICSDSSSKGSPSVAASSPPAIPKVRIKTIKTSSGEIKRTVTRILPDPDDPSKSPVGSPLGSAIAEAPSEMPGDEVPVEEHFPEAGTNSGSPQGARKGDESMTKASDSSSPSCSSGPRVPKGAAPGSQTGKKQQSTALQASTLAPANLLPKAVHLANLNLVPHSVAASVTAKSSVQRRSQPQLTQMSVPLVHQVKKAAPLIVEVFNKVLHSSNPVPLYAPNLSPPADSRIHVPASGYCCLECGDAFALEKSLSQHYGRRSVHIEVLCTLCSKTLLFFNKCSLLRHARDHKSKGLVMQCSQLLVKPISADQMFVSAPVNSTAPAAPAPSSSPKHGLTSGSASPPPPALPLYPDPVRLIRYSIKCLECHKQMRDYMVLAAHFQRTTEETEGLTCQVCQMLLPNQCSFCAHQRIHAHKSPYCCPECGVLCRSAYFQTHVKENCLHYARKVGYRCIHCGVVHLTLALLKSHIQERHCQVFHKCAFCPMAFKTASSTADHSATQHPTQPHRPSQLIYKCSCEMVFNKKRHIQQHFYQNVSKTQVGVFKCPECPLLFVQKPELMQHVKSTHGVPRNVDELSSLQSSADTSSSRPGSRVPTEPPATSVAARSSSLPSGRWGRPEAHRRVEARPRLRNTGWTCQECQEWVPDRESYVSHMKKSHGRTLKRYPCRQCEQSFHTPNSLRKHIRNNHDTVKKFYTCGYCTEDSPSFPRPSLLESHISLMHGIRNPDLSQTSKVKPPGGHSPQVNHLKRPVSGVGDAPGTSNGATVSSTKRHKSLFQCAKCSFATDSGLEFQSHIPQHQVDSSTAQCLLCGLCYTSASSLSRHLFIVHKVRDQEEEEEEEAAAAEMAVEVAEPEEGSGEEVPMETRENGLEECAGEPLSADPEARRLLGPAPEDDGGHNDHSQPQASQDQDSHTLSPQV
UniProt Q9UK33: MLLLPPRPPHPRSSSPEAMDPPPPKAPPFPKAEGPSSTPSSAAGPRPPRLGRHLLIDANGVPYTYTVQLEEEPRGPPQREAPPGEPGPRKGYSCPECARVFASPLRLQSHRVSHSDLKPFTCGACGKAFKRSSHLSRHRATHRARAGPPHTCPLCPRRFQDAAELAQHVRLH
UniProt Q6NUN9: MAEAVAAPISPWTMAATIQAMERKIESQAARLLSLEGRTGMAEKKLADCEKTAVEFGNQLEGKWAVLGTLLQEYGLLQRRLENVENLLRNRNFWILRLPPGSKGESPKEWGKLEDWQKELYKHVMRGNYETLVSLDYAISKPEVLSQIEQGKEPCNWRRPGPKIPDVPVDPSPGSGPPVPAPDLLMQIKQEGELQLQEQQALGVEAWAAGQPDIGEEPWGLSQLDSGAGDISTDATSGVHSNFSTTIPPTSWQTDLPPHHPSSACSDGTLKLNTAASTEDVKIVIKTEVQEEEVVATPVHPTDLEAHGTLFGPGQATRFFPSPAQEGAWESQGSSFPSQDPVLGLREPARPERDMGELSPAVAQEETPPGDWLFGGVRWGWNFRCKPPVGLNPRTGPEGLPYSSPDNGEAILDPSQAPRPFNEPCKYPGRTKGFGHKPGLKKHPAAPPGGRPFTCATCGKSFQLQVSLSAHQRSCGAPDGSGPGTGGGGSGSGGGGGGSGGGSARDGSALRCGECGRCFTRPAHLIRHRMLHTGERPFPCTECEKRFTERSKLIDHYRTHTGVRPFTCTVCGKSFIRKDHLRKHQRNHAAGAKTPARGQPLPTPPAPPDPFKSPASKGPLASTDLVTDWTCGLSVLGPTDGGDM
UniProt Q96ME7: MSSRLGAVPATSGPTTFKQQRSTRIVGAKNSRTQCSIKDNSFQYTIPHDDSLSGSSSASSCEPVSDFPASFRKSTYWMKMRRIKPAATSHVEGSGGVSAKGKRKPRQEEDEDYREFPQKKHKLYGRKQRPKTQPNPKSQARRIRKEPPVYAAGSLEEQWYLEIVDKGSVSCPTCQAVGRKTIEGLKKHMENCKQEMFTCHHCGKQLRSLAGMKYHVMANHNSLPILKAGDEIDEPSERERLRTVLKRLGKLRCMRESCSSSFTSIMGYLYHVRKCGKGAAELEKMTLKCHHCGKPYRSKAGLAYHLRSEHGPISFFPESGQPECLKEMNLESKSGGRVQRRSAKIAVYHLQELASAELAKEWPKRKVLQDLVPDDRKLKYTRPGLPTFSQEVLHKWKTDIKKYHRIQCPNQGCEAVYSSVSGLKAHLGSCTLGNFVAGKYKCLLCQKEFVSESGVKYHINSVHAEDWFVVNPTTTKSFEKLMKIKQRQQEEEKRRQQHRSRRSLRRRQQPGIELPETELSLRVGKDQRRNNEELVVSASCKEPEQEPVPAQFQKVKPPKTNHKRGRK
UniProt Q96JP5: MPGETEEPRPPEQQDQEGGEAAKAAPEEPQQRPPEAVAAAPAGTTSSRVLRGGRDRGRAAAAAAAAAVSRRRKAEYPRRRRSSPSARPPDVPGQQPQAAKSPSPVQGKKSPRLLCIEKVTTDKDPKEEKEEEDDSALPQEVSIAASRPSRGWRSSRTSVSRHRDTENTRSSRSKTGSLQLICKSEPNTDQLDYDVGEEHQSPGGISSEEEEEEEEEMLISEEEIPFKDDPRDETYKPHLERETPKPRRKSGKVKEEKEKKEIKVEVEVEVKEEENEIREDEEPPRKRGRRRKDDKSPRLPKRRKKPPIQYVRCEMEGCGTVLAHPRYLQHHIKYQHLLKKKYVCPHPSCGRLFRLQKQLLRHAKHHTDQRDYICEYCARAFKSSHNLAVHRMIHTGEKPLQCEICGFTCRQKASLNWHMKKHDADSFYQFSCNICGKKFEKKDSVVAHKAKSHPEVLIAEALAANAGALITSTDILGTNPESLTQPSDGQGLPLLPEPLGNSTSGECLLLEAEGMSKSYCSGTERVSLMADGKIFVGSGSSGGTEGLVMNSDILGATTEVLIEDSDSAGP
UniProt P52747: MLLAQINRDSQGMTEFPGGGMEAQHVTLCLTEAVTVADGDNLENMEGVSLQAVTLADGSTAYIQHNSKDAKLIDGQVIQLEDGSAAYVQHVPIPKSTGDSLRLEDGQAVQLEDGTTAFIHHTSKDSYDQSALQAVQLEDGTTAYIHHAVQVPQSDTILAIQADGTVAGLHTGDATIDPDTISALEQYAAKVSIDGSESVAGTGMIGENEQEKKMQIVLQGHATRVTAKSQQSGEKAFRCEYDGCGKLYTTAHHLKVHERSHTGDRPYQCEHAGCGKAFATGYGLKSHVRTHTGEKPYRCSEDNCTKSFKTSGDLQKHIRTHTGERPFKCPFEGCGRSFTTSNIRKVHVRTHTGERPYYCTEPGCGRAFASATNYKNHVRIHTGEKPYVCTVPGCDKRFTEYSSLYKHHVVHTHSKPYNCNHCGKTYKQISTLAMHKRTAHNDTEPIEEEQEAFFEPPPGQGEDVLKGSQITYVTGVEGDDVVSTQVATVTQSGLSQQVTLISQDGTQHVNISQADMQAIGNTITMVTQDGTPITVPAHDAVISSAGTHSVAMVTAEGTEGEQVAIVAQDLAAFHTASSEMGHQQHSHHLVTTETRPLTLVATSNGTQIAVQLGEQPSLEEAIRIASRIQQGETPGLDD
UniProt Q14202: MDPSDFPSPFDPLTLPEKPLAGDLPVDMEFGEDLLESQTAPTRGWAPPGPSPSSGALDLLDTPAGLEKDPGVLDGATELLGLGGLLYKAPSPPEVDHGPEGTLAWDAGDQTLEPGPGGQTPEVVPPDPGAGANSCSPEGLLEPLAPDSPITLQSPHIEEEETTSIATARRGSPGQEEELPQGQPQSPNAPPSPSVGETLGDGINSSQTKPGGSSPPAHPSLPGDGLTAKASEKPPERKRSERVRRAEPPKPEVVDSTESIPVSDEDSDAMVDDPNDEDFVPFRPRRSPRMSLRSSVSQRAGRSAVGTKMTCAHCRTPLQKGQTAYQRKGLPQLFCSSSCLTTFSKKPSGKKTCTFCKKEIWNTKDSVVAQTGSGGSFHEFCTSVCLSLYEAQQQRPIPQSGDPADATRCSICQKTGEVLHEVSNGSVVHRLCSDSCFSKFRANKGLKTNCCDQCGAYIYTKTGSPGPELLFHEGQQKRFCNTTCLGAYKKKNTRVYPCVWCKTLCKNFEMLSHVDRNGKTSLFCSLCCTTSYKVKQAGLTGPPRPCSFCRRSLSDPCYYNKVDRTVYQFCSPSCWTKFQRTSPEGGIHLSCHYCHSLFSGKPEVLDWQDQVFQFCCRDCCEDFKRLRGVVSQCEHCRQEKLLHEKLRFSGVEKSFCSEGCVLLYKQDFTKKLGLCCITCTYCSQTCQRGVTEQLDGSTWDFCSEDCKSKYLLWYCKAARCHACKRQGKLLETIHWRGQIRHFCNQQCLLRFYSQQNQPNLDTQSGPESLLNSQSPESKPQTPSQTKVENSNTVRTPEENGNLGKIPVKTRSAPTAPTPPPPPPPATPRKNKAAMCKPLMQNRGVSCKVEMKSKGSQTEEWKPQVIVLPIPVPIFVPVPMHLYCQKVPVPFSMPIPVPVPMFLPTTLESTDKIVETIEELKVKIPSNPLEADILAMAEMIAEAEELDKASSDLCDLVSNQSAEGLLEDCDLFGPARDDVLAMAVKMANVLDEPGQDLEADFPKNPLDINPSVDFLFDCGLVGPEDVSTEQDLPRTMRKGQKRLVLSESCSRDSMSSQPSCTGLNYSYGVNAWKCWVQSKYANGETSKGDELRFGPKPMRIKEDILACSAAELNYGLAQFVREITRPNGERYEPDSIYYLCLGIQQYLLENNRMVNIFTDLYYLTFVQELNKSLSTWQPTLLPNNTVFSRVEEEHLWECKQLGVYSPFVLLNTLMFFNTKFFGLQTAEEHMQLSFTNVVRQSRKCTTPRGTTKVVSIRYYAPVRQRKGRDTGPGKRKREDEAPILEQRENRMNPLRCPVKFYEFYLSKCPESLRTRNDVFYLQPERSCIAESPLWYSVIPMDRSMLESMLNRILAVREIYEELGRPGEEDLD
UniProt Q96KR1: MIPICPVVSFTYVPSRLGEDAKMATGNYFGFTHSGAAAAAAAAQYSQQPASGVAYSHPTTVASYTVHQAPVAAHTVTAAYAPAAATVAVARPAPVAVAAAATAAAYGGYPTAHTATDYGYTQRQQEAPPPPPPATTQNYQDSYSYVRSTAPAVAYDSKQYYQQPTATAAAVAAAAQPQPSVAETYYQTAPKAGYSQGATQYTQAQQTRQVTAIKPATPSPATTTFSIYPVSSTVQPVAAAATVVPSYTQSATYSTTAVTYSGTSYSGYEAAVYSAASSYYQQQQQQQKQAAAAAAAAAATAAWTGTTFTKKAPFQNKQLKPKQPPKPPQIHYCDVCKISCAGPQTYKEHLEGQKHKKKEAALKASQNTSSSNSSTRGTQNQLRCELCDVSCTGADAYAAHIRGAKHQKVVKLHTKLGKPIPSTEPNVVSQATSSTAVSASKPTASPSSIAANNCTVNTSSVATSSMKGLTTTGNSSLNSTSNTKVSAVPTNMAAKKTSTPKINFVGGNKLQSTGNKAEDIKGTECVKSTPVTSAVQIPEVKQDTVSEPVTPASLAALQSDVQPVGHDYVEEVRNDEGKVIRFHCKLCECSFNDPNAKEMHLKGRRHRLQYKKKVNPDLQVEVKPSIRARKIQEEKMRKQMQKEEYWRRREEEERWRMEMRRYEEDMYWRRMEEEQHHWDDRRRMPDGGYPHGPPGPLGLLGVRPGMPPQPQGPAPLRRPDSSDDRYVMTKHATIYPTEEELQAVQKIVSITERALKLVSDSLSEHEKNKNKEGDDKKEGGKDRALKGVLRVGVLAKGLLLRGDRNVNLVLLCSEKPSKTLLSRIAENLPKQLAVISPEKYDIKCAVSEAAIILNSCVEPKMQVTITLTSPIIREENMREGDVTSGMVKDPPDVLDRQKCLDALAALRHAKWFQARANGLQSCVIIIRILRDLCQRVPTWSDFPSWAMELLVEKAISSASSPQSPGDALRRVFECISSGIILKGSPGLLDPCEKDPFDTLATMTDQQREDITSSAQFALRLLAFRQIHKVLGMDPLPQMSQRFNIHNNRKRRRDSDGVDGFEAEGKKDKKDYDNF

The targets below were run with Cc1cc(ccc1-c1ccccc1)C(=O)N1CCCN(CC1)C(=O)CCl [compound 10] (assay: probe-labelled cysteine peptide fold change vs DMSO (competition) (log2 fold change); higher = less target engagement (more negative = stronger competition)). Details: 50 µM; THP-1; incubation time: 4 h.
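Also: competitive profiling in live THP-1 cells: cysteine peptides tagged with an iodoacetamide desthiobiotin (IA-DTB) probe, intensity after compound treatment relative to DMSO-treated cells.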

Row | Target | probe-labelled cysteine peptide fold change
1 | ZNF592_Q92610_201_FPVPELHMFDHFCK (UniProt Q92610) | -0.161
2 | ZNF580_Q9UK33_122+125_VSHSDLKPFTCGACGK (UniProt Q9UK33) | -0.295
3 | ZFYVE16_Q7Z3T8_292_EEVDVAVITAAECLK (UniProt Q7Z3T8) | -0.224
4 | ZMYND8_Q9ULU4_567_TIESCK (UniProt Q9ULU4) | -0.282
5 | ZNF691_Q5VV52_260_THTGERPYECTECGR (UniProt Q5VV52) | 1.19
6 | ZNF746_Q6NUN9_518_CFTRPAHLIR (UniProt Q6NUN9) | -0.0967
7 | ZNF512_Q96ME7_442_CLLCQK (UniProt Q96ME7) | 0.0478
8 | ZNF326_Q5BKZ1_360_VVMEFLHECMVNK (UniProt Q5BKZ1) | 0.106
9 | ZNF692_Q9BU19_235_LLPSPVTCTPK (UniProt Q9BU19) | -0.498
10 | ZNF668_Q96K58_198_THAGLRPYSCER (UniProt Q96K58) | -0.0308
11 | ZFP91_Q96JP5_313_CEMEGCGTVLAHPR (UniProt Q96JP5) | 0.0552
12 | ZNF143_P52747_364_THTGERPYYCTEPGCGR (UniProt P52747) | 0.34
13 | ZMYM3_Q14202_968_ASSDLCDLVSNQSAEGLLEDCDLFGPAR (UniProt Q14202) | -0.386
14 | ZFR_Q96KR1_974_RVFECISSGIILK (UniProt Q96KR1) | -0.0405
15 | ZNF609_O15014_178_SEGVGTCSEK (UniProt O15014) | -0.202
16 | ZNF638_Q14966_652_NLEDDTLSECK (UniProt Q14966) | -0.0904
17 | ZMYM3_Q14202_436_LCSDSCFSK (UniProt Q14202) | -0.551
18 | ZNF451_Q9Y4E5_133_LCVDQWLK (UniProt Q9Y4E5) | -0.288
19 | ZMPSTE24_O75844_324_QGCKNEEVLAVLGHELGHWK (UniProt O75844) | -0.857

2 entries picked at random from the list so far, as already listed:
Row | Target | probe-labelled cysteine peptide fold change
14 | ZFR_Q96KR1_974_RVFECISSGIILK (UniProt Q96KR1) | -0.0405
12 | ZNF143_P52747_364_THTGERPYYCTEPGCGR (UniProt P52747) | 0.34
